Data: article PMC4107866

Chains of the proteins cited; added tags and fusions are not shown. Lines headed by an entry give the natural chain unless they say otherwise; changes in a name come on top.
UniProt Q9H0C5: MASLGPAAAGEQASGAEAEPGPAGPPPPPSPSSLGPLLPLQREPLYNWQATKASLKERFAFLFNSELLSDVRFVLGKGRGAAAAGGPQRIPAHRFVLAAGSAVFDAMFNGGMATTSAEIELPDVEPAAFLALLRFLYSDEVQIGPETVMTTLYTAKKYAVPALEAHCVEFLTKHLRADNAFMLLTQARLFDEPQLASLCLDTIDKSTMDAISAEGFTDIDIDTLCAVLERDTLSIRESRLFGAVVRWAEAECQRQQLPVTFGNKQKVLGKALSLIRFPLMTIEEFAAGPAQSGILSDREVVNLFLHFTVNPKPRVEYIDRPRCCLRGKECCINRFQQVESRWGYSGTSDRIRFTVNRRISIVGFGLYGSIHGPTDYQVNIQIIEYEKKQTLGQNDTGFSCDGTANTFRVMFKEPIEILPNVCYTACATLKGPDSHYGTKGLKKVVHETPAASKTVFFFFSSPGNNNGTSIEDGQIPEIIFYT

Key:
Assay in all cases: co-IP; HEK293 cells co-transfected with tagged proteins (FLAG-Cul3, MYC-BTB proteins, HA-CLWs); lysates in RIPA buffer, primary antibody then protein A-Sepharose, 1 hr each at 4°C, two washes with RIPA; immunoblot
MYC-Ctb73ΔBTB (human) = MYC-Ctb73ΔBTB (human) (UniProt Q9H0C5)
[1] = target: MYC-Ctb73 deletion mutant without the BACK domain (human) (UniProt Q9H0C5)
[2] = target: MYC-Ctb73 deletion mutant without the Kelch domain (human) (UniProt Q9H0C5)

Measured: binding

B1: HA-LRR5 (fibromodulin) (protein, UniProt Q06828 19-376)
chain: QYEDDPHWWFHYLRSQQSTYYDPYDPYPYETYEPYPYGVDEGPAYTYGSPSPPDPRDCPQECDCPPNFPTAMYCDNRNLKYLPFVPSRMKYVYFQNNQITSIQEGVFDNATGLLWIALHGNQITSDKVGRKVFSKLRHLERLYLDHNNLTRMPGPLPRSLRELHLDHNQISRVPNNALEGLENLTALYLQHNEIQEVGSSMRGLRSLILLDLSYNHLRKVPDGLPSALEQLYMEHNNVYTVPDSYFRGAPKLLYVRLSHNSLTNNGLASNTFNSSSLLELDLSYNQLQKIPPVNTNLENLYLQGNRINEFSISSFCTVVDVVNFSKLQVLRLDGNEIKRSAMPADAPLCLRLASLIEI
binds: all assays above

No constants are given. Whether binding was seen depends on the method and setting. Binding seen in cells or lysates may run through a third protein. Binding can be weak; no strength is given. Sequences can lack the tags named with a protein.
